# The supplement of paper PMC12819154, “High-throughput peptide-centric local stability assay extends protein–ligand identification to membrane proteins, tissues and bacteria” (Nature Structural & Molecular Biology, 2025)
# By UniProt entry, the sequences of proteins in these tests, tags left out. Where a name states a change or a piece, a line headed by the entry shows the natural chain unless it says otherwise.
# UniProt Q3UN90: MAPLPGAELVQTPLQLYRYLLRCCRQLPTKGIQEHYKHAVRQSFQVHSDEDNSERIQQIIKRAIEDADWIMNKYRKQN
# UniProt Q3UHI4: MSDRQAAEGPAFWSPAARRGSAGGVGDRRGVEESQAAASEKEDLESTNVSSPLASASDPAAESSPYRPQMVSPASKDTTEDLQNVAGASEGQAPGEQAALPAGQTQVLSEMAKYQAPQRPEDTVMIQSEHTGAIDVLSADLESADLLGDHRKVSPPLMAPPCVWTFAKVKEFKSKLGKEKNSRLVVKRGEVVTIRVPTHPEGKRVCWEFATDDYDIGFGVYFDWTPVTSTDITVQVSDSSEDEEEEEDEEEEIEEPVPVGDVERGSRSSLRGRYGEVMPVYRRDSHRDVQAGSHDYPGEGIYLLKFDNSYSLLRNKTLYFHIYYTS
# UniProt Q501J7: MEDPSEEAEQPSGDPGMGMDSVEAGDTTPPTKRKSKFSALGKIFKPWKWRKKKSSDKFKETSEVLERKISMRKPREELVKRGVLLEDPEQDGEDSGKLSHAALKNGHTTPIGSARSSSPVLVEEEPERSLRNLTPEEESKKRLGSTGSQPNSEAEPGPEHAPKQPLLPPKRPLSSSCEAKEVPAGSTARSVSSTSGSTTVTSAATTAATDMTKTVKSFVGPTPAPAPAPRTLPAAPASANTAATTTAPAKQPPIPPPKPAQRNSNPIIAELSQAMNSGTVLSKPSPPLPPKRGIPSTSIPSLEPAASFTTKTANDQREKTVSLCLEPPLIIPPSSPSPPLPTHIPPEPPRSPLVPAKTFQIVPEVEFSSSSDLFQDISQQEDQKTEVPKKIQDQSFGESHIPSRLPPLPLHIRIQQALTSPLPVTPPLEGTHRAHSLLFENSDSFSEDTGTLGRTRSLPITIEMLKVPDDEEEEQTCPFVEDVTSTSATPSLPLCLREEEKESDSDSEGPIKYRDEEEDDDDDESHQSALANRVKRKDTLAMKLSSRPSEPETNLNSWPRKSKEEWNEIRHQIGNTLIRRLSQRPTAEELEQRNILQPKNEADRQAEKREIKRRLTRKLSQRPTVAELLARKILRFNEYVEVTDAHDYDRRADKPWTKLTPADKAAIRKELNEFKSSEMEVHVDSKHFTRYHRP
# UniProt Q3UEN2: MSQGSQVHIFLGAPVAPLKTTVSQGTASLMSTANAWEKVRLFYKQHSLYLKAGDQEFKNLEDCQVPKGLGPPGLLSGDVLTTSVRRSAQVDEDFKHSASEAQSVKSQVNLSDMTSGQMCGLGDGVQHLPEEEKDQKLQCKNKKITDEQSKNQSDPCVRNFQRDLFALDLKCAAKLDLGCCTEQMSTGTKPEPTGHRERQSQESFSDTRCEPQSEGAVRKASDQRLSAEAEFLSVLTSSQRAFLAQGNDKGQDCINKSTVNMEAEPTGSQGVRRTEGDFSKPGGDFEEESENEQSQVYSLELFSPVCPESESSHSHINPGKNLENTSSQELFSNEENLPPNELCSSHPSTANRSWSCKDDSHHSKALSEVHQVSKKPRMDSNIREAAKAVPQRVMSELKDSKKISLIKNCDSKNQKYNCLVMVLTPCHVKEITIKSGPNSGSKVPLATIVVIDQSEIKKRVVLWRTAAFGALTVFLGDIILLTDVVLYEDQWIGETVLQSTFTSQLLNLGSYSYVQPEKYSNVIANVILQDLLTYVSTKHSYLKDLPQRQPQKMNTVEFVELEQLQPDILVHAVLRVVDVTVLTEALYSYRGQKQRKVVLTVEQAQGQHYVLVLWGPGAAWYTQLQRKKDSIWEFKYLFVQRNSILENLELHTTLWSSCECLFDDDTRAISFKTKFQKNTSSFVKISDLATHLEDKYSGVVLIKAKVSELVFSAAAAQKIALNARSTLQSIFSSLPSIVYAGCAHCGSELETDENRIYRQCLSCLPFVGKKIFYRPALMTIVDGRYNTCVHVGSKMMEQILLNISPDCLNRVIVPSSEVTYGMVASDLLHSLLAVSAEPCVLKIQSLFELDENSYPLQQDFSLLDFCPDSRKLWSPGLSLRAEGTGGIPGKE
# UniProt Q3U3D7: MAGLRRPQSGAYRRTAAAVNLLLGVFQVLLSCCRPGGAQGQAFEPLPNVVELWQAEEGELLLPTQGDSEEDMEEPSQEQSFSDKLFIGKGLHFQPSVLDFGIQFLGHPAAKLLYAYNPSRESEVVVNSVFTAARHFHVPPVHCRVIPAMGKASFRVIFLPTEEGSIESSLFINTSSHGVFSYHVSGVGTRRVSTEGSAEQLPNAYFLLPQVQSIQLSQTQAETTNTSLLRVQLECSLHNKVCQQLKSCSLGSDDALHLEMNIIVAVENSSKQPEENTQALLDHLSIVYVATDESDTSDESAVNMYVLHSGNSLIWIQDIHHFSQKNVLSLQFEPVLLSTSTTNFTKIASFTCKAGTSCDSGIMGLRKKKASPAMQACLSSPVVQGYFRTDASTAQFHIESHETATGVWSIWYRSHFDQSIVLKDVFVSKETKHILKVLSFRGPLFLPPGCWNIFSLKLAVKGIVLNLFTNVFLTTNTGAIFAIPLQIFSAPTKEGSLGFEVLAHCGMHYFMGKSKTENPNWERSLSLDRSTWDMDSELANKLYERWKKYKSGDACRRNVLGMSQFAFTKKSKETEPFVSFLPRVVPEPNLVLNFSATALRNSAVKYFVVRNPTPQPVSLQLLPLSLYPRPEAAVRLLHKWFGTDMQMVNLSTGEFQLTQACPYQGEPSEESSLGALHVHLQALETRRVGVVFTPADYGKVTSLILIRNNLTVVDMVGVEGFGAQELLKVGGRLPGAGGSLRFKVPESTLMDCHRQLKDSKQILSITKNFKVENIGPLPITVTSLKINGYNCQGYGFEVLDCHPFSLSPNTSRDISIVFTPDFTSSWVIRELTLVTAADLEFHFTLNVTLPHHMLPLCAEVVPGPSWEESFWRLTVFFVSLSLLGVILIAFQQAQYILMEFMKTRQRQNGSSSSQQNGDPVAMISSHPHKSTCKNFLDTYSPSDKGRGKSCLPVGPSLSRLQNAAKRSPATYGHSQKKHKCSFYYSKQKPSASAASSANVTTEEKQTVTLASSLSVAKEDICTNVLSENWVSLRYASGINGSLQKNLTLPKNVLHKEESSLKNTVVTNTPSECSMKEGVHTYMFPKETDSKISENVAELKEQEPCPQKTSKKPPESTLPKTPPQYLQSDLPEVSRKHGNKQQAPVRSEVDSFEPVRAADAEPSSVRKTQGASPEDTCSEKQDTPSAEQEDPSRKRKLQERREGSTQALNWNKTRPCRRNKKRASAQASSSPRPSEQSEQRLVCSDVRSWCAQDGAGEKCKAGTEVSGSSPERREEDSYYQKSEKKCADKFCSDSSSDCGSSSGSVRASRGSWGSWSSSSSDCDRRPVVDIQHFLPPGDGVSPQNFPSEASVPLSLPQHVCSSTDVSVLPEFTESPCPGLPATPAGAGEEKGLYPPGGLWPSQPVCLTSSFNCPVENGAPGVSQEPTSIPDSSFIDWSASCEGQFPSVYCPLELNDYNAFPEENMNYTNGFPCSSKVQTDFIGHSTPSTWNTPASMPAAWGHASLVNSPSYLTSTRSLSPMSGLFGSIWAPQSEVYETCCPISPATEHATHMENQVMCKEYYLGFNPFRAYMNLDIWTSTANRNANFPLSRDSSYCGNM
# UniProt Q3UFY0: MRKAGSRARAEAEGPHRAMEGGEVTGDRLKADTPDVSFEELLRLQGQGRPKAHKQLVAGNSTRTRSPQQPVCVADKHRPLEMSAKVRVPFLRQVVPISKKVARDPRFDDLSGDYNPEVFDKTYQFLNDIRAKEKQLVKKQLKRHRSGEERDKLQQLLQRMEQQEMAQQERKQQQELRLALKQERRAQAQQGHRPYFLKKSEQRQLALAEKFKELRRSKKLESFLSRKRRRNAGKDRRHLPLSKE
# UniProt Q5DTN8: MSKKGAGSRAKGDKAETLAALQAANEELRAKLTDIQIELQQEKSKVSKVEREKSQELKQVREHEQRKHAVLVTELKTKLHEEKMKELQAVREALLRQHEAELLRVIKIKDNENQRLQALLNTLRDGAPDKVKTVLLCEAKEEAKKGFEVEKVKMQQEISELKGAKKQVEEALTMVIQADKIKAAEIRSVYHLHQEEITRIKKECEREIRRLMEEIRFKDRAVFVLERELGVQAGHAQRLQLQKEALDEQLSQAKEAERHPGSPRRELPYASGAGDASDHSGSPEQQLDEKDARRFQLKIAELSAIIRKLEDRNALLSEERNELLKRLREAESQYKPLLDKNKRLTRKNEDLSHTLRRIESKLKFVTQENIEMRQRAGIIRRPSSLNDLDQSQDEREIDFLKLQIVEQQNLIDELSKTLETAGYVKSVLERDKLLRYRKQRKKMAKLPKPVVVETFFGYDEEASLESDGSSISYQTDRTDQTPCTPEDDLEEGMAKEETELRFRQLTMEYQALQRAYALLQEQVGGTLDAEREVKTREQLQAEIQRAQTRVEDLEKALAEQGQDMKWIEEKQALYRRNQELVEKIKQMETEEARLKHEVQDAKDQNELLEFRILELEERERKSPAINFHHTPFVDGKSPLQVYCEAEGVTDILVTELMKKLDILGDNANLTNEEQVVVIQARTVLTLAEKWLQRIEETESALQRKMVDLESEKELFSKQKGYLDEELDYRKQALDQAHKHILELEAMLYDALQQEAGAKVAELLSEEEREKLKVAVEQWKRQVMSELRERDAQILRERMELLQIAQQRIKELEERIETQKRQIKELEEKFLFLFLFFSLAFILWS
# UniProt Q505B7: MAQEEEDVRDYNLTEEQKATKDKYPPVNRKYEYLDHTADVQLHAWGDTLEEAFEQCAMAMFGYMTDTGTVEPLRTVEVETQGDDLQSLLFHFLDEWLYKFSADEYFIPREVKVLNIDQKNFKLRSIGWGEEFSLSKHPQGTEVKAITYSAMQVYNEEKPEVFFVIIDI
# UniProt Q3UFS4: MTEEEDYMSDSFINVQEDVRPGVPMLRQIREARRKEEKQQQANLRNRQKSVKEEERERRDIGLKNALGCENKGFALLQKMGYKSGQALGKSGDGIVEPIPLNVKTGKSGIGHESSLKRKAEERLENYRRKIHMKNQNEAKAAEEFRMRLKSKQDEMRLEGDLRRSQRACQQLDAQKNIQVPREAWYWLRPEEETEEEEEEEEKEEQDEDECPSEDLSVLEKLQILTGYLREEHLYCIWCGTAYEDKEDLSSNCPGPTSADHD
# UniProt Q3UIA2: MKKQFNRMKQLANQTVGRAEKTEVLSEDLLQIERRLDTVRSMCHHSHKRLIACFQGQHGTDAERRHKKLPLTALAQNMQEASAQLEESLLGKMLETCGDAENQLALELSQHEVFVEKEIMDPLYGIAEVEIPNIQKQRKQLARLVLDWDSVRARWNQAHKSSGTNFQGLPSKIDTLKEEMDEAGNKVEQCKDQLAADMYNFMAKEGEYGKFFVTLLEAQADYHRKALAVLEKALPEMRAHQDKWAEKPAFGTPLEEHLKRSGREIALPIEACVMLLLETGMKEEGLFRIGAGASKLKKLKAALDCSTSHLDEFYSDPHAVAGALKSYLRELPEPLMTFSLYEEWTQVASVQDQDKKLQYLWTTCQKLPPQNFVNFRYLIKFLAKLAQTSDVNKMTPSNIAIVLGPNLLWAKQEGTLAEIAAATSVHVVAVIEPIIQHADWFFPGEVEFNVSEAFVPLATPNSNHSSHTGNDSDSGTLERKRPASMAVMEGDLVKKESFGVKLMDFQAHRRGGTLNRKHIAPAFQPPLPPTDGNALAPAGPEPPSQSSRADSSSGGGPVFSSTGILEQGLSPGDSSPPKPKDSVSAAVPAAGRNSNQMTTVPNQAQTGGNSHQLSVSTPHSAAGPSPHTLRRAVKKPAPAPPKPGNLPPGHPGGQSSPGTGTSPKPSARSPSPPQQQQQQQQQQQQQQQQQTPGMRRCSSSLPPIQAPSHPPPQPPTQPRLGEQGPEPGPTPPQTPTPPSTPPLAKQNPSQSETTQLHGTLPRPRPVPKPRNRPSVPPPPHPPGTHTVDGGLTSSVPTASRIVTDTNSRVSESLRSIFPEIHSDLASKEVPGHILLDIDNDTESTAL
# UniProt Q3UE17: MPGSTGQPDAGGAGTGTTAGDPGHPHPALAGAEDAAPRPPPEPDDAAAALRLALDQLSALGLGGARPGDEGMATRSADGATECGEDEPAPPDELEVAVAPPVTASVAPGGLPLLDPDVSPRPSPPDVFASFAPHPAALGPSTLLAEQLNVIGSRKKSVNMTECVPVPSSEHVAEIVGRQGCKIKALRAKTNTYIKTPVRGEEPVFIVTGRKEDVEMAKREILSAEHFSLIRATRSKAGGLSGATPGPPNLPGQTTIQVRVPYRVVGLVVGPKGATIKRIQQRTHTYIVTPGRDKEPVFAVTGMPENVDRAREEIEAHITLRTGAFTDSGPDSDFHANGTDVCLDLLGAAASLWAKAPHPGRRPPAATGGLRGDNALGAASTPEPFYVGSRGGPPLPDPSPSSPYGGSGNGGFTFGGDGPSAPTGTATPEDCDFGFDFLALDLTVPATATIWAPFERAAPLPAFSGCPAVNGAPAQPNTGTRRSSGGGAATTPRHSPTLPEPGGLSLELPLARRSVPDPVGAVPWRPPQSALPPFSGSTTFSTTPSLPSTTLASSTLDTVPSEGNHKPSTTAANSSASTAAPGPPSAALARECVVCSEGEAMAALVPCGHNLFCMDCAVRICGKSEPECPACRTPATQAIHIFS
# Some of the results follow. Small differences around the control level are noise.
# Compound: CN[C@@H]1C[C@H]2O[C@@](C)([C@@H]1OC)n1c3ccccc3c3c4c(c5c6ccccc6n2c5c31)C(=O)NC4 [staurosporine]
# Experiment: log2 fold change of tryptic peptide abundance, ligand vs vehicle (limited proteolysis) (log2 ratio); higher = more trypsin-susceptible (destabilized)
# Conditions: ligand concentration: 20 uM; sample: mouse liver crude lysate; replicate design: treated separately
row,Target,log2 fold change
1,"UniProt Q3UY23 (peptide sequence: AALEGDPVALENLKR, peptide start residue: 39)",0.589
2,"UniProt Q3UC65 (peptide sequence: DRMELLEIAK, peptide start residue: 186)",0.493
3,"UniProt Q3UHD3 (peptide sequence: QELLEKAYR, peptide start residue: 337)",-0.0163
4,"UniProt Q3UN90 (peptide sequence: QSFQVHSDEDNSER, peptide start residue: 42)",-0.614
5,"UniProt Q3UHI4 (peptide sequence: KVSPPLMAPPCVWTFAK, peptide start residue: 152)",1.11
6,"UniProt Q4VAC9 (peptide sequence: RPGSSRPASWTLFDLPGPR, peptide start residue: 896)",-0.302
7,"UniProt Q3UHA3 (peptide sequence: LCLLSQVLK, peptide start residue: 1628)",0.238
8,"UniProt Q5BU09 (peptide sequence: DQAWVDAK, peptide start residue: 145)",0.2
9,"UniProt Q501J7 (peptide sequence: YRDEEEDDDDDESHQSALANR, peptide start residue: 513)",0.693
10,"UniProt Q3UY34 (peptide sequence: EAATPAWGLEQRPGAAERPEAGAADK, peptide start residue: 29)",-0.149
11,"UniProt Q3U8K7 (peptide sequence: GAHSQGDSLPCTYTTR, peptide start residue: 525)",-0.523
12,"UniProt Q3ULF4 (peptide sequence: EGGFSAFNQLK, peptide start residue: 281)",0.41
13,"UniProt Q3UEN2 (peptide sequence: KLWSPGLSLRAEGTGGIPGK, peptide start residue: 871)",0.288
14,"UniProt Q3U3I9 (peptide sequence: FEPMELYGEHAK, peptide start residue: 42)",0.0549
15,"UniProt Q3U3D7 (peptide sequence: SCLPVGPSLSR, peptide start residue: 949)",0.278
16,"UniProt Q3UFY0 (peptide sequence: AEAEGPHR, peptide start residue: 10)",0.943
17,"UniProt Q3UFM5 (peptide sequence: ASAAQPK, peptide start residue: 151)",0.421
18,"UniProt Q3UMQ8 (peptide sequence: FGGSGQGSAAPQPPEDRR, peptide start residue: 15)",0.277
19,"UniProt Q5DTN8 (peptide sequence: IKELEER, peptide start residue: 808)",-0.0562
20,"UniProt Q3UE37 (peptide sequence: DRLHLQGQTMQDPFGEKR, peptide start residue: 290)",-0.549
21,"UniProt Q505B7 (peptide sequence: DKYPPVNR, peptide start residue: 22)",0.112
22,"UniProt Q3UFS4 (peptide sequence: NALGCENKGFALLQK, peptide start residue: 65)",0.165
23,"UniProt Q3UIA2 (peptide sequence: MKQLANQTVGR, peptide start residue: 8)",-0.463
24,"UniProt Q4G5Y1 (peptide sequence: HLLHSVNQR, peptide start residue: 389)",0.187
25,"UniProt Q3ULJ0 (peptide sequence: VMQNGLLFK, peptide start residue: 172)",-0.179
26,"UniProt Q3UNX5 (peptide sequence: GSFYITGDR, peptide start residue: 448)",0.184
27,"UniProt Q52KB6 (peptide sequence: TLNEITTVTDR, peptide start residue: 2052)",0.444
28,"UniProt Q3UMR5 (peptide sequence: LVINDLTYHVRPPKR, peptide start residue: 150)",0.129
29,"UniProt Q3UE17 (peptide sequence: RPPAATGGLR, peptide start residue: 362)",-0.019
30,"UniProt Q3UMB5 (peptide sequence: SIIEHQDLLR, peptide start residue: 242)",0.224

# In another format: results already given
row	Target	log2 fold change
11	UniProt Q3U8K7 (peptide sequence: GAHSQGDSLPCTYTTR, peptide start residue: 525)	-0.523
12	UniProt Q3ULF4 (peptide sequence: EGGFSAFNQLK, peptide start residue: 281)	0.41
13	UniProt Q3UEN2 (peptide sequence: KLWSPGLSLRAEGTGGIPGK, peptide start residue: 871)	0.288
14	UniProt Q3U3I9 (peptide sequence: FEPMELYGEHAK, peptide start residue: 42)	0.0549
15	UniProt Q3U3D7 (peptide sequence: SCLPVGPSLSR, peptide start residue: 949)	0.278
